Experiment: general procedure: peptide synthesis; Fmoc-Phe-Rink amide-MBHA resin; TentaGel resin loaded with Fmoc-Glycine (dendrimers); DCC/HOBt; HBTU/HOBt/DIEA (dendrimers)
Settings: coupling step

Substance	step yield [%]
[Boc-Lys(Boc)]4[Lys]2Lys-DAB-DNP	48
[Boc-Lys(Tfa)]8[Lys]4[Lys]2Lys-DAB-DNP	50
